Laboratory results: the M2OR odorant receptor database
The list shows a part of the results, in another mix than the full data. Calls are pooled over several reports, among them a noisy single-well screen.

Molecular target: T1, OR1D2 (Homo sapiens) (UniProt P34982)
T1 sequence (whole entry): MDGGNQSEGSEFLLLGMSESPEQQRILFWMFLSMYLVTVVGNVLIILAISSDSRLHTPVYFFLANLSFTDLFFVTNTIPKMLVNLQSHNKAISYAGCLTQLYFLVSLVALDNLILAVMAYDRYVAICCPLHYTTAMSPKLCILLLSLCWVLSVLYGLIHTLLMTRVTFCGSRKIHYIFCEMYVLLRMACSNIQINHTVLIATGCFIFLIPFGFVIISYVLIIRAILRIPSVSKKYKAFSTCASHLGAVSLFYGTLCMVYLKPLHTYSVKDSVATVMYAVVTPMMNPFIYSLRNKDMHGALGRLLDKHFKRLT
Details: stereoisomer not certain
Summary of the method: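 Whether a receptor–molecule pair is responsive (active) rests on the original authors' judgment that its measured signal was statistically different from baseline. Pairs without that judgment are non-responsive (inactive). Sources used varied assay methods, commonly transient luciferase assays in mammalian cell lines.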
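Further: active if original authors judged signal statistically different from baseline.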

| Compound | odorant receptor agonist call |
| --- | --- |
| CC(=O)c1ccccc1 | inactive |
| CC12C=CCC1C1CCC3=CC(=O)CCC3(C)C1CC2 (centres undefined) | inactive |
| CC(C)CCC(=O)O | inactive |
| O=C1CCCCC1 | inactive |
| CC(=O)C(C)=O | inactive |
| CC12C=CCC1C1CCC3CC(=O)CCC3(C)C1CC2 (centres undefined) | inactive |
| CCCCCCCCOC(C)=O | inactive |
| CCCCCCCCCC=O | inactive |
| CC12CCC(CC1)C(C)(C)O2 | inactive |
| C=CC(C)(O)CCC=C(C)C (centres undefined) | inactive |
| CC(C)C(=O)O | inactive |
| CC(C)=CCCC(C)=CC=O | inactive |
| CCC1(O)C2(C)CCC(C2)C1(C)C (centres undefined) | inactive |
| CCCC(=O)O | inactive |
| CC1=CCC(C(C)(C)O)CC1 (centres undefined) | inactive |
| C=CCSCC=C | inactive |
| COC(=O)c1ccccc1O | inactive |
| CCCCO | inactive |
| CC(=O)OC(C)(C)C1CC=C(C)CC1 (centres undefined) | inactive |
| O=CCc1ccccc1 | active |
| COc1cc(C=O)ccc1O | inactive |
| C=CCc1ccc(OC(C)=O)c(OC)c1 | inactive |
| CCCCCC(C)=O | inactive |
| CCCCCCCC=CC=O | inactive |

An excerpt from above in order of heavy-atom count, descending.

| Compound | odorant receptor agonist call |
| --- | --- |
| C=CCc1ccc(OC(C)=O)c(OC)c1 | inactive |
| COC(=O)c1ccccc1O | inactive |
| CCCCCC(C)=O | inactive |
